Measurements reported in PubChem BioAssay AID686943 (Drosophila RNAi Screening Center, 2013).
Purpose: 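Knockdowns that increase or decrease active ERK after insulin receptor stimulation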 (primary screen). Cells: Drosophila S2R+ haemocyte-like cells expressing YFP-tagged ERK (Rolled). Reagent: long dsRNA against Drosophila genes. Conditions: insulin stimulation versus unstimulated cells; dose and duration not given. Read-out: 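Antibody staining for doubly phosphorylated ERK divided by ERK-YFP signal, as plate z-scores, in insulin-treated and untreated cells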. Direction: replicate 1, z-score of dpERK with insulin and replicate 2, z-score of dpERK with insulin: higher = more active ERK per ERK-YFP after insulin; replicate 1, z-score of dpERK under basal conditions: higher = more basal active ERK per ERK-YFP; replicate 1, z-score of ERK-YFP with insulin: higher = more YFP-tagged ERK signal.
The screen tested about 23,000 reagents; below is a random part of those that have a named target and a result. 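Extra replicates exist only for a retested subset of genes; insulin dose and duration not given; both raised and lowered dpERK matter.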 Reagents against one gene are numbered here. Names joined by + are all predicted targets of the reagent. Not given: the amount of reagent, the time to read-out.

| replicate 1, z-score of dpERK with insulin | replicate 2, z-score of dpERK with insulin | replicate 1, z-score of dpERK under basal conditions | replicate 1, z-score of ERK-YFP with insulin | target | reagent no. |
| --- | --- | --- | --- | --- | --- |
| -0.69 | 1.33 | 0.85 | 0.38 | CG9692 | 1 |
| -0.05 | 0.86 | -0.21 | 0.4 | CG31274 + MESK4 | 1 |
| 0.67 | 0.17 | 0.18 | -0.22 | Ocho | 1 |
| -0.63 | -1.28 | -1.02 | -0.04 | CG12814 | 1 |
| -1.18 | -0.9 | 1.08 | -0.28 | CG12814 | 2 |
| 0.5 | 0.83 | -0.42 | -0.57 | CG5087 | 1 |
| -3.45 | -0.28 | -3.13 | -4.69 | RpL23 | 1 |
| 0.57 | -0.01 | 1.26 | -0.74 | Gr58b | 1 |
| -0.78 | -0.1 | 0.72 | 0.91 | CG14043 | 1 |
| 0.46 | -0.39 | -0.44 | -0.18 | CG3704 | 1 |
| 1.1 | 1.18 | 0.12 | -0.11 | CG3704 | 2 |
| 1.12 | 0.12 | -0.52 | 0.15 | ssh | 1 |
| 0.61 | 0.31 | 1.19 | 0.09 | CG13907 | 1 |
| 0.27 | -0.45 | -0.37 | -0.28 | veil | 1 |
| 1.08 | 0.91 | -0.88 | -0.5 | CG8534 | 1 |
| -0.81 | -1.02 | -0.67 | -1.34 | Tmem43 | 1 |
| 0.35 | 0.39 | 1.23 | -0.05 | CG30148 | 1 |
| -0.14 | 0.57 | -2.81 | 0.19 | beat-IIb | 1 |
| 0.34 | -1.33 | -0.08 | 0.68 | beat-IIb | 2 |
| 0.04 | 0.4 | 0.14 | 0.6 | beat-IIb | 3 |
| -0.64 | -0.45 | 0.55 | 0.08 | CG43075 | 1 |
| 0.61 | 0.54 | -0.16 | -0.09 | CG1572 | 1 |
| -0.22 | 0.38 | 1.34 | -0.12 | holn1 | 1 |
| -0.1 | -0.06 | 0.05 | -0.11 | holn1 | 2 |
| 0.95 | 2.14 | 0.56 | 0.41 | ppk5 | 1 |
| -0.14 | 1.21 | 0.28 | 0.22 | CG5103 | 1 |
| 0.16 | -0.26 | 0.56 | 0.02 | Vha16-3 | 1 |
| -0.2 | 0.16 | 0.59 | -0.16 | bowl | 1 |
| -0.46 | 0.62 | 0.05 | 0.27 | Vps20 | 1 |
| 0.27 | -0.35 | 0.68 | -0.13 | AlaRS-m | 1 |
| 0.29 | 0.71 | 0.85 | 0.39 | CG15643 | 1 |
| 2.34 | 1.24 | -0.64 | -0.13 | Usp39 | 1 |
| 0.46 | -0.02 | 0.26 | 0.11 | Anp | 1 |
| 0.77 | 0.01 | 0.19 | 0.03 | CheB98a | 1 |
| 0.94 | 0.79 | 0.82 | 1.15 | bark | 1 |
| -0.1 | -0.55 | -0.41 | -0.1 | DCTN5-p25 | 1 |
| 0 | 0.27 | -0.66 | 0.41 | retn | 1 |
| -2.87 | -0.03 | -0.71 | 3.11 | tbc | 1 |
| 0.57 | 0.86 | 0.5 | 0.23 | CG14606 | 1 |
| 1.9 | -0.52 | 0.63 | -1.02 | CG14892 | 1 |
| -4.79 | -4.87 | -5.01 | 1.08 | orb | 1 |
| 0.44 | -3.41 | 1.14 | -1.61 | CG32847 | 1 |
| -0.01 | -0.23 | -0.36 | 0.42 | CR44003 + CG44002 | 1 |
| 0.28 | 0.76 | 1.06 | -0.46 | CR44003 + CG44002 | 2 |
| -1.18 | -0.84 | -0.32 | 1.2 | eIF3h | 1 |
| 0.02 | -0.92 | 0.43 | -0.32 | CG32281 | 1 |
| -1.38 | -2.78 | -2.21 | 4.38 | Top1 | 1 |
| -0.05 | -0.09 | 0.89 | 0.04 | CG11106 | 1 |
| 0.04 | -1.37 | -0.18 | -1.2 | CG2698 | 1 |
| -1.76 | -0.44 | 0.69 | -0.92 | Jupiter | 1 |
| -0.35 | -0.67 | 0.84 | -1.03 | Jupiter | 2 |
| 0.11 | 0.97 | 0.78 | -0.72 | Jupiter | 3 |
| -0.52 | 0.64 | 0.04 | 1.42 | mle | 1 |
| -0.48 | 0 | -0.77 | 0.62 | CG11475 | 1 |
| -1.07 | -0.88 | -0.48 | 0.36 | qm | 1 |
| 2.26 | 4.97 | -2.11 | 0.08 | Cdk12 | 1 |
| 0.26 | -0.56 | -0.12 | 0.17 | CG10907 | 1 |

Already shown: entries from further up.
| replicate 1, z-score of dpERK with insulin | replicate 2, z-score of dpERK with insulin | replicate 1, z-score of dpERK under basal conditions | replicate 1, z-score of ERK-YFP with insulin | target | reagent no. |
| --- | --- | --- | --- | --- | --- |
| -0.1 | -0.55 | -0.41 | -0.1 | DCTN5-p25 | 1 |
| 0 | 0.27 | -0.66 | 0.41 | retn | 1 |
| -2.87 | -0.03 | -0.71 | 3.11 | tbc | 1 |
